The source of these data is patent publication EP4800033A1, “HUMANIZED ANTI-CKAP4 ANTIBODY OR ANTIGEN-BINDING FRAGMENT THEREOF” (The University of Osaka, priority 2023, dated 2025).

Sequences of proteins named here, by UniProt entry; tags and fusion partners are left off. A change or cut given only in a name is not applied to a line headed by its entry.
UniProt Q07065: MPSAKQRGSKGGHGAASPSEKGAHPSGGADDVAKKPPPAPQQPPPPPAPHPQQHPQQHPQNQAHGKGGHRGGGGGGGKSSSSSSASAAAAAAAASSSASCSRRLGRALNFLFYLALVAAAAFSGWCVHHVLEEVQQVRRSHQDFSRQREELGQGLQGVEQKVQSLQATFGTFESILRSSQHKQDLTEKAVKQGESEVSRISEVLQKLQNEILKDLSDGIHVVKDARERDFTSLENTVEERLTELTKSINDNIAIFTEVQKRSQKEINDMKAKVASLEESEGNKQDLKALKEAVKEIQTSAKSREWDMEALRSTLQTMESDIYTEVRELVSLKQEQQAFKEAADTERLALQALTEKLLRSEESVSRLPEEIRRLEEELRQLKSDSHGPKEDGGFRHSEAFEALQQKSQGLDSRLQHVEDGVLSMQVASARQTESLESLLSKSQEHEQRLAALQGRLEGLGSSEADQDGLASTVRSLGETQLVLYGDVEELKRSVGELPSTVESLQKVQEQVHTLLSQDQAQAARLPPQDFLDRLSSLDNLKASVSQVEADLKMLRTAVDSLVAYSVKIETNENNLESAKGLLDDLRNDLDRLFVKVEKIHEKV

The target of test [1] is CKAP4 in lysates of canine kidney cells MDCK I (canine). Briefly: blot of MDCK I cell lysate.
Test [2] deals with human endogenous CKAP4 (S2-CP8 cells) (human) (UniProt Q07065). Briefly: immunoprecipitation from S2-CP8 cell lysate, blot with rabbit anti-CKAP4 polyclonal antibody.

No constants are given. Whether binding was seen depends on the method and setting. Some results given as binding are weak or reduced against the parent protein; the word gives no strength.

B1: Humanized anti-CKAP4 antibody Hv1Lt1 (antibody, human IgG1, V domains shown)
VH: QVQLVQSGAEVKKPGASVKVSCKASGFTFTSYWMHWVRQAPGQGLEWIGNINPSNGGTNYNAKFKSRVTMTRDTSTSTVYMELSSLRSEDTAVYYCARWVSFSYRGAMDYWGQGTLVTVSS
VL: EIVLTQSPDFQSVTPKEKVTITCRASRAIRNNLHWYQQKPDQSPKLLIKYVSQSISGVPSRFSGSGSGTDFTLTINSLEAEDAATYYCQQSDSWPYTFGQGTKLEIK
notes: also called HvlLtl; Humanized antibody Hv1Lt1
With B1, the binding entry in test [1] is on record as “binds”.

B2: Humanized anti-CKAP4 antibody Hv2Lt1 (antibody, human IgG1, V domains shown)
VH: QVQLVQSGAEVKKPGASVKVSCKASGYTFTSYWMHWVRQAPGQGLEWMGIINPSNGGTSYAQKFQGRVTMTRDTSTSTVYMELSSLRSEDTAVYYCARWVSFSYRGAMDYWGQGTLVTVSS
VL: EIVLTQSPDFQSVTPKEKVTITCRASRAIRNNLHWYQQKPDQSPKLLIKYVSQSISGVPSRFSGSGSGTDFTLTINSLEAEDAATYYCQQSDSWPYTFGQGTKLEIK
notes: also called Hv2Ltl; Humanized antibody Hv2Ltl
On to B2, for which the binding entry in test [1] is recorded as “binds”.

B3: Mouse anti-CKAP4 antibody 3F11-2B10 (antibody, V domains shown)
VH: VQLQQQPGTELVKPGASVKLSCKASGFTFTSYWMHWVKQRPGQGLEWIGNINPSNGGTNYNAKFKSKATLTVDKSSSTAYMQLSSLTSEDSAVYYCARWVSFSYRGAMDYWGQGTSVTVSS
VL: DIVLTQSPAILSVTPGDGVSLSCRASRAIRNNLHWFQQKSHESPRLLIKYVSQSISGIPSRFSGSGSGTDFTLSVDSVETEDFGVYFCQQSDSWPYTFGGGTKLEIK
notes: Mouse monoclonal antibody; also called Mouse antibody 3F11-2B10; original mouse anti-CKAP4 antibody
As to B3, in test [2], the binding entry is listed as “binds”.
